Our source for the log2 fold change values is the supplement of paper PMC10849652.

Chains of the proteins cited; added tags and fusions are not shown. Lines headed by an entry give the natural chain unless they say otherwise; changes in a name come on top.
UniProt P01033: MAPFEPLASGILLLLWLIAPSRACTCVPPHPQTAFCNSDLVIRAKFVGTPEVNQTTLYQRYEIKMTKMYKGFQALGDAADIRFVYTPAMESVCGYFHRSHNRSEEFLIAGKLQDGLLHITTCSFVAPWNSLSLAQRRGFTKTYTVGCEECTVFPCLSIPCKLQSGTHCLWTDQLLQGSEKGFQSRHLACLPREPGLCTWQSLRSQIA
UniProt Q9NR96: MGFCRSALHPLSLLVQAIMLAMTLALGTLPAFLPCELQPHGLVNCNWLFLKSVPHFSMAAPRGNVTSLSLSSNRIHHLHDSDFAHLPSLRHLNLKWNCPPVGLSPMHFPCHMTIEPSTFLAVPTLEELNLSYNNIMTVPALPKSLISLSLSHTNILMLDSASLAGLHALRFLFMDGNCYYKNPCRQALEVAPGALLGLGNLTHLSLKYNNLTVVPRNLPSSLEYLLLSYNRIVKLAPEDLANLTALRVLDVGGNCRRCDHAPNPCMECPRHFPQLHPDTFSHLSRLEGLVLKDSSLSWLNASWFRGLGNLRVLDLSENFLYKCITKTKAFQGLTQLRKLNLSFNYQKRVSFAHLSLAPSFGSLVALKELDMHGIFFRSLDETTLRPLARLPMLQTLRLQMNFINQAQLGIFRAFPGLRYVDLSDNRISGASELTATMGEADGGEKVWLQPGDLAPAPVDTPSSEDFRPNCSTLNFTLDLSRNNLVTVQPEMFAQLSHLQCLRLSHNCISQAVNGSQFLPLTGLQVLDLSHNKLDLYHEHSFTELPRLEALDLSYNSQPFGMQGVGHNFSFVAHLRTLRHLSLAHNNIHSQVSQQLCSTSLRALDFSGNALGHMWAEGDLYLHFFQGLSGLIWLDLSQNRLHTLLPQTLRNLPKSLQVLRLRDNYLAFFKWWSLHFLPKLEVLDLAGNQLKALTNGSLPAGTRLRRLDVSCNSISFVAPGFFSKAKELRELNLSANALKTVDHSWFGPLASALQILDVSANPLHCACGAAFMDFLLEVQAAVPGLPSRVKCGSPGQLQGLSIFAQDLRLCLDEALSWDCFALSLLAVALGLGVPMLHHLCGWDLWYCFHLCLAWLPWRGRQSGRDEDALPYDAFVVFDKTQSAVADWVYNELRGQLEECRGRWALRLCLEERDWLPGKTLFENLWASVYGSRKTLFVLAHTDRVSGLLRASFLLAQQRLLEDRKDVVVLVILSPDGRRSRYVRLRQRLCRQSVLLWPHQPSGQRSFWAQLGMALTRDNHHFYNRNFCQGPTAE
UniProt O43493: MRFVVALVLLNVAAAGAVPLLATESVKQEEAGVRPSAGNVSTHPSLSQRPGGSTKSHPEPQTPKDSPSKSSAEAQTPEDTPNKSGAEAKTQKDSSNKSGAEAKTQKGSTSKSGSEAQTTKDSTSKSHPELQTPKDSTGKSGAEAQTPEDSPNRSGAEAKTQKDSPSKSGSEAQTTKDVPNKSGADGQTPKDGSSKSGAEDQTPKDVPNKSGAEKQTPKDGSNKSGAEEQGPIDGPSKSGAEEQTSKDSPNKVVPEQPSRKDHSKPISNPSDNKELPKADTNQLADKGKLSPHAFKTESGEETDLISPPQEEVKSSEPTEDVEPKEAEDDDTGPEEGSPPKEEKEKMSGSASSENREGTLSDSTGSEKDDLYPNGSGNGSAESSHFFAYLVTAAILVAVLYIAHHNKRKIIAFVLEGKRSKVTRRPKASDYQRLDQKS
UniProt Q9Y5L4: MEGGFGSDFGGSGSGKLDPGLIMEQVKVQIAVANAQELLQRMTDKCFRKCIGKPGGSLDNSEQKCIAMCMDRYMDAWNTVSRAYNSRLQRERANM
UniProt O15321, whole entry, looked up: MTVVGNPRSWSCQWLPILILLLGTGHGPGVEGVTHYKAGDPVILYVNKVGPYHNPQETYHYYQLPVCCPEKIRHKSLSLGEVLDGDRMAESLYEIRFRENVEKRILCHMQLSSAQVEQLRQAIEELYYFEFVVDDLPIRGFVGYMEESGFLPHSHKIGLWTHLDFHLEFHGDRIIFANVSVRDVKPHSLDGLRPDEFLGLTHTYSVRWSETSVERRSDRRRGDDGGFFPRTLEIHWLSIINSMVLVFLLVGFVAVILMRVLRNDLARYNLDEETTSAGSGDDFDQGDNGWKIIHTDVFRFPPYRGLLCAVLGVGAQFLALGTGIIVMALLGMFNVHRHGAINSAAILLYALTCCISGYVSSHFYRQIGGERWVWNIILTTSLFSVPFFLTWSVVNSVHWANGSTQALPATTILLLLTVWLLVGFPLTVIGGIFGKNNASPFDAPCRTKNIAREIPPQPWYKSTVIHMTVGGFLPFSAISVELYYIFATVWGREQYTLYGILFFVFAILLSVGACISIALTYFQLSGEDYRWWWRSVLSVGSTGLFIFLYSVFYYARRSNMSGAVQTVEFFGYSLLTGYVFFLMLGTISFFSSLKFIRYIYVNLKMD
UniProt Q9Y2S6, whole entry, looked up: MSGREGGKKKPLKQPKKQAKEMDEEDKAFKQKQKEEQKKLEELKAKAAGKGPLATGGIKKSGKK
UniProt Q9NX00: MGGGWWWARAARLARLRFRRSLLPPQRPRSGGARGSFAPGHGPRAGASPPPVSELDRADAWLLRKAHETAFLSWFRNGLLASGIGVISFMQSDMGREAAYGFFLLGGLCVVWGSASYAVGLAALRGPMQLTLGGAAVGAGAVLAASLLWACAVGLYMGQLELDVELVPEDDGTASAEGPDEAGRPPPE
UniProt Q9Y584: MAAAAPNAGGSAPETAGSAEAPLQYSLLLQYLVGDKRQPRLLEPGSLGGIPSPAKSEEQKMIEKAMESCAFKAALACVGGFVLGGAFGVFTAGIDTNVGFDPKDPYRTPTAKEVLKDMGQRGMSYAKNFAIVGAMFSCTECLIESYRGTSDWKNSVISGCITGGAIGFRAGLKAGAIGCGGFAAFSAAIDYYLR
UniProt Q86XR7, whole entry, looked up: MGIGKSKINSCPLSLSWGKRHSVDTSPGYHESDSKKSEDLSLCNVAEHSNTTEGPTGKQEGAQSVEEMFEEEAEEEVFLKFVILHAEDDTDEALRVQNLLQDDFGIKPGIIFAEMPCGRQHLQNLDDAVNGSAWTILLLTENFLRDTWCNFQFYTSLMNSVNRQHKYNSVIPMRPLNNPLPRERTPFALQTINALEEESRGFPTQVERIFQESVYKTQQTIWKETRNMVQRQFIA
UniProt Q9H5L6: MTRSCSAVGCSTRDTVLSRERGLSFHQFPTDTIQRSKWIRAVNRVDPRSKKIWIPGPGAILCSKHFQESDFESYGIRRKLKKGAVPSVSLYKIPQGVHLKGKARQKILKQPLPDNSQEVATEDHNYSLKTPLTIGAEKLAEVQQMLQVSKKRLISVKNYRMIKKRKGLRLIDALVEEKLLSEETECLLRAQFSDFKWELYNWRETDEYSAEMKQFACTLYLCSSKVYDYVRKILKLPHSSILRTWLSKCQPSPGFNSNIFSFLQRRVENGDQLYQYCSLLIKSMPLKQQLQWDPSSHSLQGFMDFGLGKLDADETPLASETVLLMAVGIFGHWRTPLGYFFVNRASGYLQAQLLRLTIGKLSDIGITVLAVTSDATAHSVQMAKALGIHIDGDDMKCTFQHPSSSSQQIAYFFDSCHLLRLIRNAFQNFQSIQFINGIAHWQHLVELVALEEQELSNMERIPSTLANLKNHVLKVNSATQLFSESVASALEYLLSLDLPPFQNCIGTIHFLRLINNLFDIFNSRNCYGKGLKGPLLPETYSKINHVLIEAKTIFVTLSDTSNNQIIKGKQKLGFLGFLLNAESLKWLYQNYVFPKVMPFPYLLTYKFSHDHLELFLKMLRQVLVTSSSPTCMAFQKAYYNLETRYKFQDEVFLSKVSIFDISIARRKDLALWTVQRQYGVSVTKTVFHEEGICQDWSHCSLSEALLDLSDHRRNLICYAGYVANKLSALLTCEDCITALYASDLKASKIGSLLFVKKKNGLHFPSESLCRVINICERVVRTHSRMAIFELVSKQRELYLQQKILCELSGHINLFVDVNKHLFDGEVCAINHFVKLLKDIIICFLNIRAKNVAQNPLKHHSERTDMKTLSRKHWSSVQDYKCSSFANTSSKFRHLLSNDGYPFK
UniProt Q9P2C4: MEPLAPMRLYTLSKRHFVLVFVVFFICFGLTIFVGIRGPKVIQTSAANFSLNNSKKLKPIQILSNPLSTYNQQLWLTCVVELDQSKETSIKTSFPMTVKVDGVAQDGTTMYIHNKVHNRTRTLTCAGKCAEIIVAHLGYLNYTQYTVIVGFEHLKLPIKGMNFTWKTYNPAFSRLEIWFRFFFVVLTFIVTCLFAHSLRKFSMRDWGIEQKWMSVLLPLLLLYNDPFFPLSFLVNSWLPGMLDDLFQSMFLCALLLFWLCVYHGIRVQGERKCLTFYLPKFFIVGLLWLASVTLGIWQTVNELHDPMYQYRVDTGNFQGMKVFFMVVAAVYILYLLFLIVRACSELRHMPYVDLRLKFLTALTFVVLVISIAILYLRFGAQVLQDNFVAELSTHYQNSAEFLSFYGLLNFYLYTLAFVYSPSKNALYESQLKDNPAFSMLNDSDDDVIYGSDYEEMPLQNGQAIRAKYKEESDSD
UniProt Q96I45: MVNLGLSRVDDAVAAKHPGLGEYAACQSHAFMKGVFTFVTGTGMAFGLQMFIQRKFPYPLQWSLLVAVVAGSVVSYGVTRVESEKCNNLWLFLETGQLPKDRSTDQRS
UniProt Q96CP7: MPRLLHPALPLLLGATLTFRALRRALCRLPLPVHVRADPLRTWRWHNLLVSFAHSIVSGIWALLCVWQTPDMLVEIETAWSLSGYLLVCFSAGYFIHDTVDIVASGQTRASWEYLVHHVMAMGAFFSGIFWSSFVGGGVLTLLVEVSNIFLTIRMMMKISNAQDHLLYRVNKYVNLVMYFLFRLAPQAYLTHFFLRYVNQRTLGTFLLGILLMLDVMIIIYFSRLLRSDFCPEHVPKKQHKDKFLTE
UniProt P04183: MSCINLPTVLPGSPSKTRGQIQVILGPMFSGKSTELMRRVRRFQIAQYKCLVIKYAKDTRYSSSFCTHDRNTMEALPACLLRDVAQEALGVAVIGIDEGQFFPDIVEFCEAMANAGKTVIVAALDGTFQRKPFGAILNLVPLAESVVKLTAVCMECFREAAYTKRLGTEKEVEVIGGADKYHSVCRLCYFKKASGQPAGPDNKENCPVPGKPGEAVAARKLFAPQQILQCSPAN
UniProt Q9Y5J7: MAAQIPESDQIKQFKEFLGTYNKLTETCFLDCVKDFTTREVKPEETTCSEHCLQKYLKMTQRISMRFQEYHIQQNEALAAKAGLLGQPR
UniProt Q96MV1: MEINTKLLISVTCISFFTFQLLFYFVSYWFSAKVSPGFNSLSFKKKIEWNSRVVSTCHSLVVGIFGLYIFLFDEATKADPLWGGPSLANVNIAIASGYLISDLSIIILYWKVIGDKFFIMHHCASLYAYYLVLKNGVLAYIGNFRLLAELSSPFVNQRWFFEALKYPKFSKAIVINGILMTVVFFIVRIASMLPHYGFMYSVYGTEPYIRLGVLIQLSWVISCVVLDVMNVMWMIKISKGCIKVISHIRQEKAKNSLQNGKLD
UniProt O14925: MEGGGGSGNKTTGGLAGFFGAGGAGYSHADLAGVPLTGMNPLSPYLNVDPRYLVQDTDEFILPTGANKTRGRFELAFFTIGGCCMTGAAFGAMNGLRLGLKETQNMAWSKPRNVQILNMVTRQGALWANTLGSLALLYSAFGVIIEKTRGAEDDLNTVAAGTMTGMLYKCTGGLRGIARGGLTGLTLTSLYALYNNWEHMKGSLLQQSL
UniProt Q9P0S9: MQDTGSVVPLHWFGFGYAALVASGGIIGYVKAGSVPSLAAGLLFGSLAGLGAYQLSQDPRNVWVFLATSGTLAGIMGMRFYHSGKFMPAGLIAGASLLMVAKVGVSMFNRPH
UniProt Q5JTD0: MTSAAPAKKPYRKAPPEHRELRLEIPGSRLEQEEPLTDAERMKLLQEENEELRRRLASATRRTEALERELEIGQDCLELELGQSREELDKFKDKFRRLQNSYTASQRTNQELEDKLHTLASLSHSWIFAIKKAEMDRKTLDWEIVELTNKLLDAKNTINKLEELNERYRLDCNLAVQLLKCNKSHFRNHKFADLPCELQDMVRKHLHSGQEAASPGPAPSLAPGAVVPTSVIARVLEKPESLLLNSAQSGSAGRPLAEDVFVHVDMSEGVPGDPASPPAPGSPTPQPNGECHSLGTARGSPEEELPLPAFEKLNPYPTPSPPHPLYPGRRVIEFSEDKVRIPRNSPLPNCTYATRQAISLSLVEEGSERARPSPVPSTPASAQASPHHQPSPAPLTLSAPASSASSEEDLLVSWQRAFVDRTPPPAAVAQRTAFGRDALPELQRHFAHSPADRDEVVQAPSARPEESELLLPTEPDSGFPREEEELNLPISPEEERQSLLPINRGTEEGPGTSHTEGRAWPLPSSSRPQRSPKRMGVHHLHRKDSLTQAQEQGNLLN
UniProt Q9NPL8: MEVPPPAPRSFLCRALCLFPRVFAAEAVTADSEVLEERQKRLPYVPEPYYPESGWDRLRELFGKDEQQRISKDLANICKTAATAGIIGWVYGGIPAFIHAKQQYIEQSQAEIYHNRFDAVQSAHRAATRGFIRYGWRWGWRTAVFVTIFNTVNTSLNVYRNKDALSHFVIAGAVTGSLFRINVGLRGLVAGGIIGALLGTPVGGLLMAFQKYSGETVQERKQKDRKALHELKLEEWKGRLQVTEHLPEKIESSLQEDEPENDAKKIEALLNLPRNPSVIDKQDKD

This is one part of the list.

Compound in the first experiment: C1=CC=C(C=C1)[C@H](COC2=CC3=C(C=C2)NC(=O)N3)NC(=O)C4=CC=CN(C4=O)CC5=CC(=C(C=C5)F)F
The experiment can be described thus: log2 fold change, soluble protein after heating vs DMSO (PISA); higher = thermal stabilisation; K562 lysate, 10 uM; active = over 0.2 and 3.5 SD of the protein, either way, in both replicates (recomputed). An outline of the steps:
(§1)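 Values give the log-two fold change in thermal stability against solvent controls, from duplicates. Crude K562 extract at 1 mg/mL protein, made by dounce homogenisation in PBS pH 7.4 with 1 mM MgCl2, was treated with 10 μM compound for 30 min. After 3 min heating across 48°C-58°C, aliquots were pooled, adjusted to 0.5% NP-40 at 4°C and centrifuged at 21,000xg for 90 min. The supernatant was measured by TMTpro 16plex LC-MS/MS with channel sums equalised.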
For TIMP1 (UniProt P01033), the log2 fold change is inactive: 0.077.

For TLR9 isoform 4 (UniProt Q9NR96), the log2 fold change was inactive: -0.004.

Consider TKT isoform 2 (UniProt P29401), for which the log2 fold change is inactive: 0.021.

As to THUMPD1 (UniProt Q9NXG2), the log2 fold change is inactive: 0.027.

TGOLN2 isoform 7 (UniProt O43493): the log2 fold change was inactive: 0.065.

In the case of TIMM13 (UniProt Q9Y5L4), the log2 fold change was inactive: 0.049.

Turning to TGFB1 (UniProt P01137), the log2 fold change is inactive: 0.018.

In the case of TJP1 (UniProt G3V1L9), the log2 fold change was inactive: -0.025.

In the case of TM9SF1 (UniProt O15321), the log2 fold change is inactive: 0.093.

As for TMEM120A (UniProt Q9BXJ8), the log2 fold change is inactive: -0.083.

As to TIPIN (UniProt Q9BVW5), the log2 fold change is inactive: 0.004.

As to TMA7 (UniProt Q9Y2S6), the log2 fold change was inactive: -0.046.

For THRAP3 (UniProt Q9Y2W1), the log2 fold change is inactive: -0.001.

In the case of TMEM160 (UniProt Q9NX00), the log2 fold change is inactive: -0.031.

As to TMEM127 (UniProt O75204), the log2 fold change is inactive: -0.041.

On to TIMM22 (UniProt Q9Y584), for which the log2 fold change is inactive: 0.049.

In the case of TICAM2 isoform 2 (UniProt Q86XR7), the log2 fold change was inactive: 0.016.

In the case of TMCO6 isoform 2 (UniProt Q96DC7), the log2 fold change is inactive: -0.036.

For the target THAP9 (UniProt Q9H5L6), the log2 fold change was inactive: 0.024.

Regarding TMEM106C (UniProt Q9BVX2), the log2 fold change was inactive: 0.04.

On to TMEM181 (UniProt Q9P2C4), for which the log2 fold change was inactive: 0.062.

For TJP1 isoform 2 (UniProt Q07157), the log2 fold change is inactive: 0.048.

Take TMED10 (UniProt P49755): the log2 fold change is inactive: 0.029.

With TIMM17A (UniProt Q99595), the log2 fold change was inactive: -0.022.

As to TMEM141 (UniProt Q96I45), the log2 fold change was inactive: 0.051.

TMBIM1 (UniProt Q969X1): the log2 fold change is inactive: 0.063.

On to TLCD1 (UniProt Q96CP7), for which the log2 fold change is inactive: 0.032.

For TK1 (UniProt P04183), the log2 fold change is inactive: 0.006.

As for TMCO1 (UniProt Q9UM00), the log2 fold change is inactive: -0.03.

For the target TIMM9 (UniProt Q9Y5J7), the log2 fold change is inactive: -0.002.

Consider TLCD4 (UniProt Q96MV1), for which the log2 fold change is inactive: -0.015.

For THTPA (UniProt Q9BU02), the log2 fold change was inactive: -0.032.

On to TM9SF3 (UniProt Q9HD45), for which the log2 fold change is inactive: 0.018.

Turning to TIMM23 (UniProt O14925), the log2 fold change is inactive: 0.016.

Regarding THEMIS2 (UniProt Q5TEJ8), the log2 fold change was inactive: 0.046.

For the target TMEM14C (UniProt Q9P0S9), the log2 fold change was inactive: -0.131.

Take TJAP1 (UniProt Q5JTD0): the log2 fold change is inactive: 0.046.

Consider TMEM165 (UniProt Q9HC07), for which the log2 fold change is inactive: 0.01.

For TIMMDC1 (UniProt Q9NPL8), the log2 fold change is inactive: -0.009.

Compound in another experiment: CC1=C(SC2=C1C(=N[C@H](C3=NN=C(N32)C)CC(=O)N)C4=CC=C(C=C4)Cl)C
The description is as above. An outline of the steps:
as §1
For TIMP1 (UniProt P01033), the log2 fold change was inactive: -0.003.

Turning to TLR9 isoform 4 (UniProt Q9NR96), the log2 fold change was inactive: 0.097.

TKT isoform 2 (UniProt P29401): the log2 fold change is inactive: 0.004.

In the case of THUMPD1 (UniProt Q9NXG2), the log2 fold change is inactive: 0.005.

In the case of TGOLN2 isoform 7 (UniProt O43493), the log2 fold change is inactive: -0.029.

For TIMM13 (UniProt Q9Y5L4), the log2 fold change was inactive: -0.044.

In the case of TGFB1 (UniProt P01137), the log2 fold change was inactive: 0.02.

On to TJP1 (UniProt G3V1L9), for which the log2 fold change is inactive: -0.014.

On to TM9SF1 (UniProt O15321), for which the log2 fold change is inactive: -0.096.

Take TMEM120A (UniProt Q9BXJ8): the log2 fold change is inactive: -0.003.

With TIPIN (UniProt Q9BVW5), the log2 fold change was inactive: 0.034.

Consider TMA7 (UniProt Q9Y2S6), for which the log2 fold change is inactive: 0.021.

On to THRAP3 (UniProt Q9Y2W1), for which the log2 fold change was inactive: 0.039.

On to TMEM160 (UniProt Q9NX00), for which the log2 fold change was inactive: -0.015.

Consider TMEM127 (UniProt O75204), for which the log2 fold change was inactive: -0.125.

On to TIMM22 (UniProt Q9Y584), for which the log2 fold change is inactive: 0.055.

Regarding TICAM2 isoform 2 (UniProt Q86XR7), the log2 fold change was inactive: 0.011.

For TMCO6 isoform 2 (UniProt Q96DC7), the log2 fold change is inactive: 0.068.

THAP9 (UniProt Q9H5L6): the log2 fold change is inactive: 0.039.

With TMEM106C (UniProt Q9BVX2), the log2 fold change was inactive: 0.21.

As to TMEM181 (UniProt Q9P2C4), the log2 fold change is inactive: -0.05.

As to TJP1 isoform 2 (UniProt Q07157), the log2 fold change was inactive: 0.02.

Turning to TMED10 (UniProt P49755), the log2 fold change is inactive: -0.034.

Turning to TIMM17A (UniProt Q99595), the log2 fold change is inactive: 0.033.

For the target TMEM141 (UniProt Q96I45), the log2 fold change was inactive: -0.063.

Regarding TMBIM1 (UniProt Q969X1), the log2 fold change was inactive: 0.037.

As for TLCD1 (UniProt Q96CP7), the log2 fold change was inactive: 0.134.

For TK1 (UniProt P04183), the log2 fold change was inactive: 0.037.

TMCO1 (UniProt Q9UM00): the log2 fold change was inactive: 0.022.

For the target TIMM9 (UniProt Q9Y5J7), the log2 fold change was inactive: -0.163.

As to TLCD4 (UniProt Q96MV1), the log2 fold change was inactive: -0.031.

As to THTPA (UniProt Q9BU02), the log2 fold change was inactive: -0.037.

With TM9SF3 (UniProt Q9HD45), the log2 fold change was inactive: -0.027.

Turning to TIMM23 (UniProt O14925), the log2 fold change was inactive: 0.016.

With THEMIS2 (UniProt Q5TEJ8), the log2 fold change was inactive: 0.

With TMEM14C (UniProt Q9P0S9), the log2 fold change was inactive: -0.031.

As for TJAP1 (UniProt Q5JTD0), the log2 fold change is inactive: 0.008.

For the target TMEM165 (UniProt Q9HC07), the log2 fold change was inactive: 0.014.

With TIMMDC1 (UniProt Q9NPL8), the log2 fold change was inactive: 0.009.
